Source: patent US20080221128A1, “Metalloprotease inhibitors containing a squaramide moiety” (priority 2007, published 2008)
Some results were stated once for a whole list of compounds, not compound by compound.

Amino acid sequences for entries named in this document (tags omitted). Residues count along the entry.
UniProt P22894, 101-467: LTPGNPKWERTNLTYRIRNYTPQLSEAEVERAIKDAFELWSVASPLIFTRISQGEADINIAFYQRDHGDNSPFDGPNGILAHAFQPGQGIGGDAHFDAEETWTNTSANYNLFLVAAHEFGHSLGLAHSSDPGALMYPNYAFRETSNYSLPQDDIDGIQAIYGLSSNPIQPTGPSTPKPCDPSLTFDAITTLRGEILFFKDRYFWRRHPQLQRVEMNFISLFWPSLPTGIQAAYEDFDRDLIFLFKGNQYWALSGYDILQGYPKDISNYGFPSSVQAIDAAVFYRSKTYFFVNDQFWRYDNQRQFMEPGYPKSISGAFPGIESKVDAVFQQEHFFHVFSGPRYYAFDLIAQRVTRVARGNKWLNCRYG

Target: T1, MMP-8 (Homo sapiens, UniProt P22894)
T1 construct: purchased Calbiochem 444229
Assay: Assay for determining MMP-8 inhibition (fluorescent substrate)
Format: biochemical
Settings: activated MMP-8 enzyme; range bounds printed with own units (nM to μM)
Description: The typical assay for MMP-8 activity is carried out in assay buffer comprised of 50 mM Tris, pH 7.5, 150 mM NaCl, 5 mM CaCl2 and 0.05% Brij-35. Different concentrations of tested compounds are prepared in assay buffer in 50 μL aliquots. 10 μL of a 50 nM stock solution of activated MMP-8 enzyme (Calbiochem, Cat. No. 444229) is added to the compound solution. The mixture of enzyme and compound in assay buffer is thoroughly mixed and incubated for 10 min at 37° C. Upon the completion of incubation, the assay is started by addition of 40 μL of a 10 μM stock solution of OmniMMP fluorescent substrate (Biomol, Cat. No. P-126). The time-dependent increase in fluorescence is measured at the 320 nm excitation and 390 nm emission by an automatic plate multireader at 37° C. The IC50 values are calculated from the initial reaction rates.

Structure (SMILES) | IC50 [nM]
Cc1cccc2nc(C(=O)NCc3ccc(F)c(CNc4c(N)c(=O)c4=O)c3)[nH]c(=O)c12 [1/7] | 250 to 20000
Cc1cccc2nc(C(=O)NCc3cccc(CNc4c(N)c(=O)c4=O)c3)[nH]c(=O)c12 [Example 1/5] | 250 to 20000
